The text below walks through data of PMC8268430.

In test [1] the target is T1, NAC102-eYFP (Arabidopsis thaliana) (UniProt Q8H115).
T1 sequence: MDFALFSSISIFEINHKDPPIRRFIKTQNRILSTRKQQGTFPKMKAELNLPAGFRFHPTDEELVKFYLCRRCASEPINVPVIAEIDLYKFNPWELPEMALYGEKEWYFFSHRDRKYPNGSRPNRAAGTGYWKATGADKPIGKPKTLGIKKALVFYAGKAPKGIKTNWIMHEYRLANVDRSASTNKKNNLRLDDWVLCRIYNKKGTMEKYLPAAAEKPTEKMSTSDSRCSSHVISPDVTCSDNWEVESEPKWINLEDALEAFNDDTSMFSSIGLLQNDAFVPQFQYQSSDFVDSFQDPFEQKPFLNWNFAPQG
Kind of test: co-IP; total proteins of 8-day-old NAC102-eYFP transgenic seedlings, GFP-Trap beads 1 h; IP buffer 50 mM Tris-HCl pH 7.4, 150 mM NaCl, 1% Triton X-100, 1% sodium deoxycholate, 20 mM EDTA; wash buffer also with 0.1% SDS; blots with antibodies against rpoA, rpoB, rpoC1, rpoC2, rpoTp, rpoTmp; SSU-eYFP line as negative control; repeated twice.

Test [2] concerns the target T2, NAC102 fused to the GAL4 DNA-binding domain (BD) (Arabidopsis thaliana) (UniProt Q8H115).
T2 sequence: T1 sequence
Nature of the test: two-hybrid; NAC102 fused to GAL4 BD as bait (pGBKT7, Y187), PEP and NEP subunits fused to GAL4 AD as prey (pGADT7, AH109); mated, diploids plated on DDO and on QDO + 10 mM 3-AT, 28 °C; growth compared with the AD control.

These are yes or no findings as the source states them, for the method shown. For part of these data: In cells and extracts the contact can be indirect. Some entries that bind do so weakly or less than the wild type. Tags and fused reporters may be left off the sequences shown.

B1: rpoTp (endogenous) (protein, UniProt O24600 96-993)
chain: AGTIKGASLIEELENPVERNGLSGRRRLFMQDPPWISALFLKGLSKMVDQTLKIERKDIDKRKFDSLRRRQVKEETEAWERMVDEYRDLEKEMCEKNLAPNLPYVKHMFLGWFQPLKDVIEREQKLQKNKSKKVRAAYAPHIELLPADKMAVIVMHKMMGLVMSGHEDGCIQVVQAAVSIGIAIEQEVRIHNFLKRTRKNNAGDSQEELKEKQLLRKRVNSLIRRKRIIDALKVVKSEGTKPWGRATQAKLGSRLLELLIEAAYVQPPLTQSGDSIPEFRPAFRHRFKTVTKYPGSKLVRRYGVIECDSLLLAGLDKSAKHMLIPYVPMLVPPKRWKGYDKGGYLFLPSYIMRTHGSKKQQDALKDISHKTAHRVFEALDTLGNTKWRVNRNILDVVERLWADGGNIAGLVNREDVPIPEKPSSEDPEELQSWKWSARKANKINRERHSLRCDVELKLSVARKMKDEEGFYYPHNLDFRGRAYPMHPHLNHLSSDLCRGTLEFAEGRPLGKSGLHWLKIHLANLYAGGVEKLSHDARLAFVENHLDDIMDSAENPIHGKRWWLKAEDPFQCLAACVILTQALKSPSPYSVISHLPIHQDGSCNGLQHYAALGRDSFEAAAVNLVAGEKPADVYSEISRRVHEIMKKDSSKDPESNPTAALAKILITQVDRKLVKQTVMTSVYGVTYVGAREQIKRRLEEKGVITDERMLFAAACYSAKVTLAALGEIFEAARAIMSWLGDCAKIIASDNHPVRWITPLGLPVVQPYCRSERHLIRTSLQVLALQREGNTVDVRKQRTAFPPNFVHSLDGTHMMMTAVACREAGLNFAGVHDSYWTHACDVDTMNRILREKFVELYNTPILEDLLQSFQESYPNLVFPPVPKRGDFDLKEVLKSQYFFN
For the molecule B1, the binding result in test [1] was “binds”.

B2: rpoB fused to the GAL4 activation domain (AD) (protein, UniProt P50546 1-1072)
chain: MLGDEKEGTSAIPGFNQIQFEGFYRFIDQGLIEELAKFPKIEDIDHEIEFQLFVETYQLVEPLIKERDAVYESLTYSSELYVSAGLIWKTSRNMQEQRIFIGNIPLMNSLGTSIVNGIYRIVINQILQSPGIYYQSELDHNGISVYTGTIISDWGGRLELEIDKKARIWARVSRKQKISILVLSSAMGLNLREILENVCYPEIFLSFLTDKEKKKIGSKENAILEFYQQFSCVGGDPIFSESLCKELQKKFFHQRCELGRIGRRNINWRLNLNIPQNNIFLLPRDVLAAADHLIGMKFGMGTLDDMNHLKNKRIRSVADLLQDQLGLALARLENVVKGTISGAIRHKLIPTPQNLVTSTPLTTTYESFFGLHPLSQVLDRTNPLTQIVHGRKLSYLGPGGLTGRTANFRIRDIHPSHYGRICPIDTSEGINVGLIGSLSIHARIGDWGSLESPFYELFEKSKKARIRMLFLSPSQDEYYMIAAGNSLALNRGIQEEQAVPARYRQEFLTIAWEEVHLRSIFPFQYFSIGASLIPFIEHNDANRALMSSNMQRQAVPLSRSEKCIVGTGLERQVALDSGVPAIAEHEGKILYTDTEKIVFSGNGDTLSIPLIMYQRSNKNTCMHQKPQVRRGKCIKKGQILADGAATVGGELALGKNILVAYMPWEGYNFEDAVLISECLVYGDIYTSFHIRKYEIQTHVTTQGPERITKEIPHLEGRLLRNLDKNGIVMLGSWVETGDILVGKLTPQVAKESSYAPEDRLLRAILGIQVSTSKETCLKLPIGGRGRVIDVRWVQKKGGSSYNPEIIRVYISQKREIKVGDKVAGRHGNKGIISKILPRQDMPYLQDGRPVDMVFNPLGVPSRMNVGQIFECSLGLAGSLLDRHYRIAPFDERYEQEASRKLVFSELYEASKQTANPWVFEPEYPGKSRIFDGRTGDPFEQPVIIGKPYILKLIHQVDDKIHGRSSGHYALVTQQPLRGRSKQGGQRVGEMEVWALEGFGVAHILQEMLTYKSDHIRARQEVLGTTIIGGTIPKPEDAPESFRLLVRELRSLALELNHFLVSEKNFQINRKEV
Consider B2, for which the binding entry in test [2] is on record as “binds”.

B3: rpoB (endogenous) (protein, UniProt P50546 1-1072)
chain: B2 chain
As to B3, the binding result in test [1] is recorded as “binds”.

B4: rpoA fused to the GAL4 activation domain (AD) (protein, UniProt P56762 1-329)
chain: MVREKVKVSTRTLQWKCVESKRDSKRLYYGRFILSPLMKGQADTIGIAMRRALLGEIEGTCITRAKSENIPHDYSNIAGIQESVHEILMNLNEIVLRSNLYGTRNALICVQGPGYITARDIILPPAVEIIDNTQHIATLTEPIDLCIELKIERNRGYSLKMSNNFEDRSYPIDAVFMPVENANHSIHSYGNGNEKQEILFLEIWTNGSLTPKEALHQASRNLINLFIPFLHVEEETFYLENNQHQVTLPFFPFHNRLVNLRKKKKTKELAFQYIFIDQLELPPRIYNCLKKSNIHTLLDLLNNSQEDLIKIEHFHVEDVKKILDILEKK
For B4, the binding entry in test [2] is listed as “binds”.

B5: rpoA (endogenous) (protein, UniProt P56762 1-329)
chain: B4 chain
Turning to B5, the binding result in test [1] is on record as “binds”.

B6: rpoTp fused to the GAL4 activation domain (AD) (protein, UniProt O24600 1-993)
chain: MASAAAASPSLSLNPTSHFQHQTSLVTWLKPPPSSALFRRKTLPFFERHSLPISASSSSSSSSSTSLSVHEKPISNSVHFHGNLIESFENQDSSYAGTIKGASLIEELENPVERNGLSGRRRLFMQDPPWISALFLKGLSKMVDQTLKIERKDIDKRKFDSLRRRQVKEETEAWERMVDEYRDLEKEMCEKNLAPNLPYVKHMFLGWFQPLKDVIEREQKLQKNKSKKVRAAYAPHIELLPADKMAVIVMHKMMGLVMSGHEDGCIQVVQAAVSIGIAIEQEVRIHNFLKRTRKNNAGDSQEELKEKQLLRKRVNSLIRRKRIIDALKVVKSEGTKPWGRATQAKLGSRLLELLIEAAYVQPPLTQSGDSIPEFRPAFRHRFKTVTKYPGSKLVRRYGVIECDSLLLAGLDKSAKHMLIPYVPMLVPPKRWKGYDKGGYLFLPSYIMRTHGSKKQQDALKDISHKTAHRVFEALDTLGNTKWRVNRNILDVVERLWADGGNIAGLVNREDVPIPEKPSSEDPEELQSWKWSARKANKINRERHSLRCDVELKLSVARKMKDEEGFYYPHNLDFRGRAYPMHPHLNHLSSDLCRGTLEFAEGRPLGKSGLHWLKIHLANLYAGGVEKLSHDARLAFVENHLDDIMDSAENPIHGKRWWLKAEDPFQCLAACVILTQALKSPSPYSVISHLPIHQDGSCNGLQHYAALGRDSFEAAAVNLVAGEKPADVYSEISRRVHEIMKKDSSKDPESNPTAALAKILITQVDRKLVKQTVMTSVYGVTYVGAREQIKRRLEEKGVITDERMLFAAACYSAKVTLAALGEIFEAARAIMSWLGDCAKIIASDNHPVRWITPLGLPVVQPYCRSERHLIRTSLQVLALQREGNTVDVRKQRTAFPPNFVHSLDGTHMMMTAVACREAGLNFAGVHDSYWTHACDVDTMNRILREKFVELYNTPILEDLLQSFQESYPNLVFPPVPKRGDFDLKEVLKSQYFFN
For B6, in test [2], the binding entry is listed as “binds”.
